Laboratory results: article PMC10874564
No constants are given. Whether binding was seen depends on the method and setting. Binding seen in cells or lysates may run through a third protein. Some results given as binding are weak or reduced against the parent protein; the word gives no strength.

The chains behind the UniProt entries cited, without tags or fusion partners.
UniProt Q14573: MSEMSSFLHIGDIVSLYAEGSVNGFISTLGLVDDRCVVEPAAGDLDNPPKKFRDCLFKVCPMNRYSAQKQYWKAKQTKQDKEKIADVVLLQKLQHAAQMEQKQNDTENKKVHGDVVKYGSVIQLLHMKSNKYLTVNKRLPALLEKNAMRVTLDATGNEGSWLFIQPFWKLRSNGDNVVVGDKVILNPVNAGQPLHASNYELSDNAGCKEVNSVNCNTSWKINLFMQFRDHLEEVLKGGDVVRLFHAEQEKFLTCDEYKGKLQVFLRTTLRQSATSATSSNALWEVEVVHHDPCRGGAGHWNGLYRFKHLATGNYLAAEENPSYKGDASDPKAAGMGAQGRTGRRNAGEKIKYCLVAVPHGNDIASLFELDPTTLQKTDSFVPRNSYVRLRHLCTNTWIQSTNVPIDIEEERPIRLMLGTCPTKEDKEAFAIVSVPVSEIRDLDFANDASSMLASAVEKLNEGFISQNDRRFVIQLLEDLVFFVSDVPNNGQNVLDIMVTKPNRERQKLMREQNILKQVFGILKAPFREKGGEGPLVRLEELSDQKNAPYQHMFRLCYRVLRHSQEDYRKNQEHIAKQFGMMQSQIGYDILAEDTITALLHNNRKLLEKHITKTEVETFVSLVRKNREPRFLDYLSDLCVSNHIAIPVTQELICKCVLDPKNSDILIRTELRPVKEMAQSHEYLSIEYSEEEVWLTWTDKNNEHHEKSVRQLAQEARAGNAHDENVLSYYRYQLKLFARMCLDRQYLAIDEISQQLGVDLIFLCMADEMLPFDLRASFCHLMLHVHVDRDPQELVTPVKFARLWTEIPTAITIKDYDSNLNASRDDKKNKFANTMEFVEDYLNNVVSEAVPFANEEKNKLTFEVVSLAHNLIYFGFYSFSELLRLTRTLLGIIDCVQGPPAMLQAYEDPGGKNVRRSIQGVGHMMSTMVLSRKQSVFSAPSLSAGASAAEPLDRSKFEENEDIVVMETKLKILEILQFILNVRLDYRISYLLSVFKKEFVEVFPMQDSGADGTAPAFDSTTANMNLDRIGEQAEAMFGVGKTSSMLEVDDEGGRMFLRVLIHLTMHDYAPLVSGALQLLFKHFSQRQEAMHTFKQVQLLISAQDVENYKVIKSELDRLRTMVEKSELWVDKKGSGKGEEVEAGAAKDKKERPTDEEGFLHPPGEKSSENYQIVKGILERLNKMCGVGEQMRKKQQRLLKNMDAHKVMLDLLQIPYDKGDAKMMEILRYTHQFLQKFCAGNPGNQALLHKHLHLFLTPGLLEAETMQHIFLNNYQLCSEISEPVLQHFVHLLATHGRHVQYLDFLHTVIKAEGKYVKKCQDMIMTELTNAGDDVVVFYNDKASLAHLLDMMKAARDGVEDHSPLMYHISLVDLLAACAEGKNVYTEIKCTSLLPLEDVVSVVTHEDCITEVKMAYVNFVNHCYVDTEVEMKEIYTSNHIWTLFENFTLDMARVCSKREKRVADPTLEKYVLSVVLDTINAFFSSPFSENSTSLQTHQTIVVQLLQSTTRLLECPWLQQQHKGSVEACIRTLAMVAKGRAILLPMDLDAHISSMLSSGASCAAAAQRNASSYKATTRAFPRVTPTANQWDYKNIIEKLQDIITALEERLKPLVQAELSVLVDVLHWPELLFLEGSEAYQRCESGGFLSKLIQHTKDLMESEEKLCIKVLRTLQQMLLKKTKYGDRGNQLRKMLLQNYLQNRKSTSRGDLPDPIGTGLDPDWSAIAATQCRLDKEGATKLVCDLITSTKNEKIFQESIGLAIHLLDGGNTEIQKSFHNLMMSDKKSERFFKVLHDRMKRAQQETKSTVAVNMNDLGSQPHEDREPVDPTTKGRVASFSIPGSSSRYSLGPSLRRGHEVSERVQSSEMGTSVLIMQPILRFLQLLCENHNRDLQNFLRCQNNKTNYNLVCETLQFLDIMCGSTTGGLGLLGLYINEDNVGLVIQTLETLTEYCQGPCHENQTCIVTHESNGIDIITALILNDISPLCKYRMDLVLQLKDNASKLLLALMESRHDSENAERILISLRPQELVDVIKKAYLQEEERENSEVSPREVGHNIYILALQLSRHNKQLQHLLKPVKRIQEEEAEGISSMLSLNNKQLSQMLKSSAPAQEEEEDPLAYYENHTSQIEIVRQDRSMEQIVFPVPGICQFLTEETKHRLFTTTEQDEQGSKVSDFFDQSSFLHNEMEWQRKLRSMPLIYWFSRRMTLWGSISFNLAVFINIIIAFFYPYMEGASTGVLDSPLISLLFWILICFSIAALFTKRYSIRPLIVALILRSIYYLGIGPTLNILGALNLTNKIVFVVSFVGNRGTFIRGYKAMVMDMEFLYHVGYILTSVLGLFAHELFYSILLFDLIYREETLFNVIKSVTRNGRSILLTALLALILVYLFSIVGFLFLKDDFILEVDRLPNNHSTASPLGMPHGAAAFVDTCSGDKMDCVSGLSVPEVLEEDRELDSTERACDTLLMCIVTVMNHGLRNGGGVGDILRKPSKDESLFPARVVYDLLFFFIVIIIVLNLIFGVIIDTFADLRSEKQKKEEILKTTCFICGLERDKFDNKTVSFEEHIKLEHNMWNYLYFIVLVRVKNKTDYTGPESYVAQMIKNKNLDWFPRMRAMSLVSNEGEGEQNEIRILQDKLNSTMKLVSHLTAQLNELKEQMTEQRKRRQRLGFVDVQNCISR
UniProt Q9NZM1: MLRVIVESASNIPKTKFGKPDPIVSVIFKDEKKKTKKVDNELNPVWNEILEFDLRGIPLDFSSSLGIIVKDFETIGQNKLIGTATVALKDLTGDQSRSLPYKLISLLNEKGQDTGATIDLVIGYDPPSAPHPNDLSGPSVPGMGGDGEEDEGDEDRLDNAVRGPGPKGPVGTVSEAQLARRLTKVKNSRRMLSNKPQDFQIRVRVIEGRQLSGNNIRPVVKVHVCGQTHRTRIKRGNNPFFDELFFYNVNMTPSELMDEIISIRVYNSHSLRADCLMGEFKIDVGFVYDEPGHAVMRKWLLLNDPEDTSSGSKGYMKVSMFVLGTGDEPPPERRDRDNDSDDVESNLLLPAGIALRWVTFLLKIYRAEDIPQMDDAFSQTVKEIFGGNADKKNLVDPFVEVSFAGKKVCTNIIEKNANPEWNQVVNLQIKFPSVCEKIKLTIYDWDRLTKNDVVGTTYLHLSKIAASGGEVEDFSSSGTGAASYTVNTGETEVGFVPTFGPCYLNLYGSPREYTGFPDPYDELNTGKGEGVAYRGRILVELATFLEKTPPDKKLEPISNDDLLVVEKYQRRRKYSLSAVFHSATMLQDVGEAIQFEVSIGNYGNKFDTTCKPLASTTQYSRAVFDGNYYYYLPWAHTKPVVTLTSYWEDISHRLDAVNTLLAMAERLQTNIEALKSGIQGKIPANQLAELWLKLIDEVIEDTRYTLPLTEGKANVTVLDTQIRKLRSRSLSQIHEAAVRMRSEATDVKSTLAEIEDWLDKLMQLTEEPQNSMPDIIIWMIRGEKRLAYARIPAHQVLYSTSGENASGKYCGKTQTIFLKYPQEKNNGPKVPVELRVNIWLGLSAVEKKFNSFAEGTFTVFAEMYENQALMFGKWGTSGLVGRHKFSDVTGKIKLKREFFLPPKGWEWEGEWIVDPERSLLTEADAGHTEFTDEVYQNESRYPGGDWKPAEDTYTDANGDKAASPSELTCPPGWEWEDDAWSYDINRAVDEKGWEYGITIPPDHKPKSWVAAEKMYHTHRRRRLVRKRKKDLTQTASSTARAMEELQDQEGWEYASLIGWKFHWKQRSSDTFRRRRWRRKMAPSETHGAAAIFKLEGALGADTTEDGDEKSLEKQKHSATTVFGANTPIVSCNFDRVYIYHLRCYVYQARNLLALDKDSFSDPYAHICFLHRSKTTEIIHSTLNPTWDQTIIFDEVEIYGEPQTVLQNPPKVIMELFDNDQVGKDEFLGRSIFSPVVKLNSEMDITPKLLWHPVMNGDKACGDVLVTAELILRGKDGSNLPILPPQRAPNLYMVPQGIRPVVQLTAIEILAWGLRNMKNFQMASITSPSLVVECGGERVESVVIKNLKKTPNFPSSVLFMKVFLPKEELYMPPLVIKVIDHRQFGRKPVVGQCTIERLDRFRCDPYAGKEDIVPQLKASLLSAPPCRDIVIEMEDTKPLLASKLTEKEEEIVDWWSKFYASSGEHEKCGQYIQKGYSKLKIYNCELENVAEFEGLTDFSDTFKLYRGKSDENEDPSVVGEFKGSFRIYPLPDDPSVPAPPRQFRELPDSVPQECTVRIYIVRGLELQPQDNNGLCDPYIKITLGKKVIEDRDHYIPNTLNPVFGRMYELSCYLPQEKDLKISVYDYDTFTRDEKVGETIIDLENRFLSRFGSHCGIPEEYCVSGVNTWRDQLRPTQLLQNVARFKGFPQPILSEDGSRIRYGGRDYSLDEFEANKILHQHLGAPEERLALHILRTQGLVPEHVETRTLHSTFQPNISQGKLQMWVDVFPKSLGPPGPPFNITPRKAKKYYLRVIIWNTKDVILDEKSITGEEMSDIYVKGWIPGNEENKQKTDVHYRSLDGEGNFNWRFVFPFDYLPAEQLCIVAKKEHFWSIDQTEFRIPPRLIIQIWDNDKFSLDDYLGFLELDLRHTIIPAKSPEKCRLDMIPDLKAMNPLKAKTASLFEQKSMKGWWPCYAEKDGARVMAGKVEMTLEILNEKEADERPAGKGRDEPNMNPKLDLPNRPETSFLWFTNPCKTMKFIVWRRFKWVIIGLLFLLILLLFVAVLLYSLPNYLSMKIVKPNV
UniProt P21796: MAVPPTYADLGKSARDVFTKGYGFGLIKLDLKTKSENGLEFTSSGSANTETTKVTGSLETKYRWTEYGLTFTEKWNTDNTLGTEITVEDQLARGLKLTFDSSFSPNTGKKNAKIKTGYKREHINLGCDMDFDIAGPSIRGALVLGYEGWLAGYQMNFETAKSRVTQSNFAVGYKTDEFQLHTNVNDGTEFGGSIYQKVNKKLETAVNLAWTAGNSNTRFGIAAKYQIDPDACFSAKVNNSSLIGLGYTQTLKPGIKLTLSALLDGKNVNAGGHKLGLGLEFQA

Legend:
[1] = molecular target: inositol 1,4,5-triphosphate receptor 3 (human (endogenous in Panc-1 and MiaPaCa-2)) (UniProt Q14573); assay: proximity ligation; Duolink PLA on fixed Panc-1 and MiaPaCa-2 cells, endogenous proteins, primary antibodies 1:75 or 1:100; red signal if less than 40 nm separate both proteins; also done after myoferlin siRNA
[2] = molecular target: inositol 1,4,5-triphosphate receptor 3 (human (endogenous in Panc-1 and MiaPaCa-2)) (UniProt Q14573); assay: co-IP; IP3R3 immunoprecipitated from MiaPaCa-2 lysate (1% NP40, 137 mM NaCl, 20 mM Tris-HCl pH 8, 2 mM EDTA); 5 µg antibody on 500 µg extract overnight, protein A/G magnetic beads, low salt and 450 mM NaCl washes with 0.1% SDS; isotype IgG control; myoferlin by western blot
[3] = molecular target: inositol 1,4,5-triphosphate receptor 3 (human (endogenous in Panc-1 and MiaPaCa-2)) (UniProt Q14573); assay: co-IP; IP3R3 immunoprecipitated from Panc-1 whole cell lysate (1% NP40, 137 mM NaCl, 20 mM Tris-HCl pH 8, 2 mM EDTA); 5 µg antibody on 500 µg extract overnight, protein A/G magnetic beads, low salt and 450 mM NaCl washes with 0.1% SDS; isotype IgG control; myoferlin by western blot

binding [1]	binding [2]	binding [3]	Substance
binds	binds weakly	binds	myoferlin (from UniProt Q9NZM1 1-2061)
binds	–	–	voltage-dependent anion channel 1 (from UniProt P21796 1-283)
